Measured values as given in PubChem BioAssay AID540276 (National Center for Advancing Translational Sciences (NCATS), 2011).
Among all 300,000 compounds or so, about 5,400 (1.8%) were called active. This list was built around the results that the source calls inconclusive (neither active nor inactive); the mix of calls is not that of the screen. Calls follow the shape of the full dose curve; tested in HEK293 cells. Where the call is inconclusive, the potency comes from a doubtful curve fit.

assay: qHTS for inhibitors of binding or entry into cells for Marburg Virus; details: Marburg virus pseudotyped entry inhibition, cell reporter; activity change, negative = inhibition: at 37.8 µM (top of the series) unless noted
% is scaled to controls: 0 for no effect and ±100 for the full control effect; potency is read from the fitted curve at half-maximal effect.

| SMILES | Potency | activity change, negative = inhibition |
| --- | --- | --- |
| COc1ccc(C(=O)C2CC2c2ccc3c(c2)OCO3)cc1 (stereo not given) | inconclusive: 8.91 µM [inhibitor, partial curve, poor fit] | – |
| CCCCN(CC)CCCNC(=O)CC1Nc2ccccc2NC1=O (stereo not given) | – | inactive: -1.67% |
| O=C(CSc1nnc(-c2ccccn2)o1)Nc1ccccc1 | inconclusive: 35.5 µM [inhibitor, single point] | – |
| O=c1[nH]c2cc3c(cc2cc1C(c1nnnn1Cc1ccccc1)N1CCN2CCCC2C1)OCCO3 (stereo not given) | inconclusive: 29.1 µM [inhibitor, single point] | – |
| Cn1cc(C(=O)c2ccc(Cl)cc2Cl)cc1C(=O)N/N=C(\N)COc1ccccc1 | inconclusive: 35.5 µM [inhibitor, single point] | – |
| Cc1ccc(C(=O)c2cc([N+](=O)[O-])ccc2N2CCCCC2)cc1C | inconclusive: 15.8 µM [inhibitor, partial curve, poor fit] | – |
| O=C(NNC(=S)Nc1ccc(C(=O)O)c(O)c1)c1ccncc1 | inconclusive: 6.31 µM [inhibitor, partial curve, poor fit] | – |
| COc1ccc(-n2ccnc2SCC(=O)Nc2cc(C)on2)cc1 | inconclusive: 35.5 µM [inhibitor, single point] | – |
| Cn1nnnc1SCCNCc1cc(Cl)ccc1OCc1ccccc1 | inconclusive: 22.4 µM [inhibitor, partial curve, poor fit] | – |
| CN(C)c1nnnn1-c1ccc(Oc2ccccc2)cc1 | inconclusive: 35.5 µM [inhibitor, single point] | – |
| Cc1ccc(NCC(=O)N/N=C/c2c[nH]c3ccccc23)cc1 | – | inactive: 0.605% [at 46.1 µM] |
| Cc1ccc(-n2c(SCC(=O)Nc3ccc4c(c3)OCO4)nnc2-c2cccs2)cc1 | – | inactive: -9.68% |
| COC(=O)[C@@]1(Cc2ccc(OC)cc2)[C@H]2c3cc(C(=O)N4CCCC4)n(Cc4ccc(C)o4)c3C[C@H]2CN1C(=O)c1ccccc1 | inconclusive: 2.31 µM [inhibitor, partial curve, poor fit] | – |
| O=C(CSCc1ccc(Br)cc1)N=Nc1c(O)[nH]c2ccccc12 | inconclusive: 35.5 µM [inhibitor, single point] | – |
| CCOC(=O)c1sc2nc(CC(=O)OC)nc(NCc3ccco3)c2c1C | inconclusive: 35.5 µM [inhibitor, single point] | – |
| COc1ccccc1CNc1ccc(-c2nc(-c3ccccn3)no2)cc1[N+](=O)[O-] | – | inactive: -15.6% [at 46.1 µM] |
| COc1ccc(Nc2c3c(nc4ccccc24)CCCC3)cc1OC | active: 8.91 µM | – |
| Nc1ccccc1SC1CC(=O)N(Cc2ccccc2)C1=O (stereo not given) | – | inactive: -0.65% [at 46.1 µM] |
| CCSc1nsc(NC(=O)Nc2cccc(C(C)=O)c2)n1 | active: 10 µM | – |
| O=[N+]([O-])c1ccc(SCc2c(F)cccc2Cl)nc1 | inconclusive: 0.891 µM [inhibitor, partial curve, poor fit] | – |
| O=C(NC12CC3CC(CC(C3)C1)C2)c1cncc(Br)c1 | inconclusive: 25.1 µM [activator, partial curve, poor fit] | – |
| O=C1OCC2=C1C(c1ccc3c(c1)OCO3)Sc1ccccc1N2 (stereo not given) | inconclusive: 35.5 µM [inhibitor, single point] | – |
| Cc1nn(-c2nc3ccccc3[nH]2)c(N)c1-c1ccc(Cl)cc1 | inconclusive: 12.6 µM [inhibitor, single point] | – |
| N#Cc1ccc(CSc2nnc(NC(=O)C3CC(=O)N(c4ccc5c(c4)OCCO5)C3)s2)cc1 (stereo not given) | – | inactive: -5.17% [at 46.1 µM] |

Compounds shown so far containing a furan ring, fused or not:

| SMILES | Potency | activity change, negative = inhibition |
| --- | --- | --- |
| COC(=O)[C@@]1(Cc2ccc(OC)cc2)[C@H]2c3cc(C(=O)N4CCCC4)n(Cc4ccc(C)o4)c3C[C@H]2CN1C(=O)c1ccccc1 | inconclusive: 2.31 µM [inhibitor, partial curve, poor fit] | – |
| CCOC(=O)c1sc2nc(CC(=O)OC)nc(NCc3ccco3)c2c1C | inconclusive: 35.5 µM [inhibitor, single point] | – |

Next compounds follow:

| SMILES | Potency | activity change, negative = inhibition |
| --- | --- | --- |
| CCOc1ccc(NC(=O)c2cccnc2C(=O)O)cc1 | – | inactive: 0.754% |
| Cc1c(NC(=O)c2cc(-n3cnnc3)ccc2Cl)cccc1-c1nc2ccccc2s1 | inconclusive: 18.3 µM [inhibitor, single point] | – |
| O=C(OCCN(CCOC(=O)c1ccncc1)S(=O)(=O)c1cccs1)c1ccncc1 | inconclusive: 35.5 µM [activator, partial curve, poor fit] | – |
| O=C(Cc1ccc([N+](=O)[O-])cc1)NCc1ccccc1Cl | – | inactive: 27.8% |
| C/C(=N\Nc1nc(Cl)c(Cl)cc1Cl)c1ccc(S(=O)(=O)NCc2ccco2)cc1 | inconclusive: 29.1 µM [inhibitor, single point] | – |
| COc1ccc(-c2nc3c(c4c2C[C@H](c2ccccc2)OC4)CN(C(=O)N[C@@H](C)C(=O)OC(C)C)CC3)c(C)c1 | inconclusive: 5.96 µM [inhibitor, single point] | – |
| CC(=O)c1ccc(S(=O)(=O)NCCC(=O)NC2CCN(Cc3ccccc3)CC2)cc1 | inconclusive: 35.5 µM [inhibitor, single point] | – |
| CCc1cc(C(=O)c2ccc(C)cc2)c(NC(=O)CCl)s1 | inconclusive: 11.2 µM [inhibitor, partial curve, poor fit] | – |
| CC1CCN(c2ccc(-c3nc(-c4ccccc4)no3)cc2[N+](=O)[O-])CC1 | inconclusive: 3.16 µM [inhibitor, single point] | – |
| CC(=O)Nc1ccc(C(=O)NC2CCSc3ccccc32)cc1 (stereo not given) | – | inactive: -2.58% [at 46.1 µM] |
| CCC(=O)c1ccc(OCC(=O)Nc2nn3cnnc3s2)cc1 | inconclusive: 12.6 µM [activator, partial curve, poor fit] | – |
| CCn1nc(C)c(CNC(=O)c2cc(COc3ccc(C)nc3)on2)c1C | inconclusive: 8.91 µM [inhibitor, partial curve] | – |
| O=C(NCc1nc2ccccc2[nH]1)c1cccc(Cl)c1 | – | inactive: 23.3% [at 46.1 µM] |
| CCCCCC(=O)N1C[C@H](n2cc(-c3ccc(F)cc3)nn2)[C@@H](O)C[C@H]1c1ccc(OC)cc1 | inconclusive: 17.7 µM [inhibitor, partial curve, poor fit] | – |
| O=C(Cn1c(C(F)(F)F)nc2ccccc21)N/N=C/c1ccco1 | inconclusive: 3.16 µM [inhibitor, single point] | – |
| CCC(NC(=O)c1ccccc1NC(=O)c1ccco1)C(=O)O (stereo not given) | – | inactive: -0.0054% [at 46.1 µM] |
| CCCCN(C(=O)c1ccc(S(=O)(=O)N2CCCC2)cc1)C1CCS(=O)(=O)C1 (stereo not given) | – | inactive: 12.9% |
| O=C(COC(=O)c1cc([N+](=O)[O-])ccc1N1CCCC1)Nc1ccccc1OC(F)F | – | inactive: -3.57% |
| COc1cc(C(C(=O)NC2CCCCC2)N(C(=O)Cc2c[nH]c3ccccc23)c2ccc(C)cc2)cc(OC)c1OC (stereo not given) | inconclusive: 35.5 µM [inhibitor, single point] | – |
| FC(F)(F)c1cc(-c2ccco2)nc(N2CCN(Cc3ccccc3)CC2)n1 | inconclusive: 18.3 µM [inhibitor, single point] | – |
| O=C(NC(Cc1ccccc1)C(=O)N1CCN(S(=O)(=O)c2ccccc2F)CC1)c1ccccc1 (stereo not given) | – | inactive: -14% [at 46.1 µM] |
| Cc1ccc(O)c(C(=O)c2cnc3c(c2)CN(C)C(=O)N3)c1 | inconclusive: 5.8 µM [inhibitor, full curve] | – |
| O=C(CSc1nnc2scc(-c3ccccc3)n12)Nc1ccc(Cl)cc1 | – | inactive: 5.86% [at 46.1 µM] |
| C/C(CC(=O)Nc1ccc(N(C)C)cc1)=N\NC(=O)c1ccc([N+](=O)[O-])cc1 | – | inactive: 3.03% [at 46.1 µM] |

Filtered by structure: the compounds so far containing bromine.

| SMILES | Potency | activity change, negative = inhibition |
| --- | --- | --- |
| O=C(CSCc1ccc(Br)cc1)N=Nc1c(O)[nH]c2ccccc12 | inconclusive: 35.5 µM [inhibitor, single point] | – |
| O=C(NC12CC3CC(CC(C3)C1)C2)c1cncc(Br)c1 | inconclusive: 25.1 µM [activator, partial curve, poor fit] | – |

Continuation.

| SMILES | Potency | activity change, negative = inhibition |
| --- | --- | --- |
| C=CCOC(=O)N[C@@H](c1ccccc1)[C@@H](C)[N+](=O)[O-] | inconclusive: 0.0067 µM [activator, full curve, poor fit] | – |
| O=C(C1CCN(S(=O)(=O)Cc2ccccc2)CC1)N1CCCc2ccccc21 | inconclusive: 25.1 µM [inhibitor, single point] | – |
| O=C(CSc1nnc(CNc2ccc(Cl)cc2)n1Cc1ccccc1)NCc1ccco1 | – | inactive: -8.46% |
| COC(=O)c1ccc(C(=O)OC)c(NC(=S)N2CCN(c3ccccc3F)CC2)c1 | inconclusive: 6.51 µM [activator, partial curve, poor fit] | – |
| CC(OC(=O)CN1C(=O)NC2(CCCC2)C1=O)C(=O)Nc1cccc(Cl)c1Cl (stereo not given) | – | inactive: 26.5% |
| CC(=NC1CC1)c1c(-c2ccccc2)[nH]n(-c2nc3ccccc3s2)c1=O | inconclusive: 29.1 µM [inhibitor, single point] | – |
| O=C(Oc1c(CN2CCOCC2)cc(Cl)c2cccnc12)c1ccc(F)cc1 | active: 10.3 µM | – |
| CC(C)[C@H](NC(N)=O)C(=O)Nc1cccc([N+](=O)[O-])c1 | – | inactive: 14.5% [at 46.1 µM] |
| CCOc1ccc(Nc2nc(N)nc(CSC(=S)N3CCN(c4ccccc4)CC3)n2)cc1 | inconclusive: 31.6 µM [inhibitor, single point] | – |
| CCC(C)NCCOCCOc1cc(C)c(Cl)c(C)c1 (stereo not given) | inconclusive: 7.94 µM [inhibitor, partial curve, poor fit] | – |
| O=C(Nc1ccc2c(c1)OCO2)c1ccc(CN2CCOCC2)cc1 | – | inactive: -15.9% [at 46.1 µM] |
| COc1ccccc1C(=O)NNC(=O)c1ccc(F)cc1 | – | inactive: 14.8% |
| Cc1cc(NC(=O)CN2C(=O)/C(=C/c3ccccc3F)SC2=S)no1 | – | inactive: -12.9% [at 46.1 µM] |
| CCOc1cc(N2CCOCC2)c(OCC)cc1NC(=O)COC(=O)c1cc(C)oc1C | inactive | – |
| Cc1ccccc1OCC(=O)NCCC1=CCCCC1 | inconclusive: 1.41 µM [activator, partial curve] | – |
| COCc1nc2ccccc2n1Cc1ccccc1C | inconclusive: 35.5 µM [inhibitor, partial curve, poor fit] | – |
| CCC[C@H](CCC(=O)Nc1ccc(C(=O)OC)cc1)C(=O)O | inconclusive: 12.6 µM [activator, single point] | – |
| O=C(CCl)Nc1c2c(nn1-c1ccccc1)CSC2 | inconclusive: 17.8 µM [inhibitor, partial curve, poor fit] | – |
| S=C1NNC2(NN1)C1CC3CC(C1)CC2C3 | – | inactive: -0.476% |
| O=C(Nc1ccc2c(c1)OCO2)c1ccc(NC2CC2)c([N+](=O)[O-])c1 | – | inactive: -23.9% |
| Cc1cccc(/C=N/n2c(C)cc(C)c(C#N)c2=O)c1 | – | inactive: 4.69% |
| CN(Cc1c(F)cccc1Cl)C(=O)c1ccc(NC(=O)CC2SC(N3CCCCC3)=NC2=O)cc1 (stereo not given) | inconclusive: 22.4 µM [inhibitor, single point] | – |
